Assay results as given in article PMC4010427, “Structural and Functional Similarity of Amphibian Constitutive Androstane Receptor with Mammalian Pregnane X Receptor” (PLoS ONE, 2014).
These are yes or no findings as the source states them, for the method shown. In cells and extracts the contact can be indirect.

Biological target: GST protein only
Assay: pull-down; CARLA control experiments set up with GST protein only instead of GST/SRC-1 fusion protein; only the target purified

- binding: no binding
B1: full-length human CAR1 protein, 35S-labelled (protein, UniProt Q14994-2 1-348)
chain: MASREDELRNCVVCGDQATGYHFNALTCEGCKGFFRRTVSKSIGPTCPFAGSCEVSKTQRRHCPACRLQKCLDAGMRKDMILSAEALALRRAKQAQRRAQQTPVQLSKEQEELIRTLLGAHTRHMGTMFEQFVQFRPPAHLFIHHQPLPTLAPVLPLVTHFADINTFMVLQVIKFTKDLPVFRSLPIEDQISLLKGAAVEICHIVLNTTFCLQTQNFLCGPLRYTIEDGARVGFQVEFLELLFHFHGTLRKLQLQEPEYVLLAAMALFSPDRPGVTQRDEIDQLQEEMALTLQSYIKGQQRRPRDRFLYAKLLGLLAELRSINEAYGYQIQHIQGLSAMMPLLQEICS
modifications: 35S-methionine labelled
